Experimental data: publication PMC3349753
Results are given in words; binding and its absence hold for the method and conditions named. Binding seen in cells or lysates may run through a third protein. Binding can be weak; no strength is given. Sequences can lack the tags named with a protein.

Molecular target: Flag-tagged LMP1 with deletion of the short N-terminal domain (ΔNT) (Epstein-Barr virus)
Experiment: co-IP; NPC-TW04 cells co-expressing Myc-FGD4 and Flag-tagged full-length, truncated or chimeric LMP1; 1% NP-40 lysates precipitated with anti-Flag M2 agarose overnight at 4°C; blot with anti-Myc and anti-Flag

B1: Myc-tagged full-length FGD4 (FYVE, RhoGEF and PH domain-containing 4) (protein, UniProt Q96M96 1-766)
chain: MEEIKPASASCVSKEKPSKVSDLISRFEGGSSLSNYSDLKKESAVNLNAPRTPGRHGLTTTPQQKLLSQHLPQRQGNDTDKTQGAQTCVANGVMAAQNQMECEEEKAATLSSDTSIQASEPLLDTHIVNGERDETATAPASPTTDSCDGNASDSSYRTPGIGPVLPLEERGAETETKVQERENGESPLELEQLDQHHEMKETNEQKLHKIANELLLTERAYVNRLDLLDQVFYCKLLEEANRGSFPAEMVNKIFSNISSINAFHSKFLLPELEKRMQEWETTPRIGDILQKLAPFLKMYGEYVKGFDNAMELVKNMTERIPQFKSVVEEIQKQKICGSLTLQHHMLEPVQRIPRYEMLLKDYLRKLPPDSLDWNDAKKSLEIISTAASHSNSAIRKMENLKKLLEIYEMLGEEEDIVNPSNELIKEGQILKLAARNTSAQERYLFLFNNMLLYCVPKFSLVGSKFTVRTRVGIDGMKIVETQNEEYPHTFQVSGKERTLELQASSAQDKEEWIKALQETIDAFHQRHETFRNAIAKDNDIHSEVSTAELGKRAPRWIRDNEVTMCMKCKEPFNALTRRRHHCRACGYVVCWKCSDYKAQLEYDGGKLSKVCKDCYQIISGFTDSEEKKRKGILEIESAEVSGNSVVCSFLQYMEKSKPWQKAWCVIPKQDPLVLYMYGAPQDVRAQATIPLLGYVVDEMPRSADLPHSFKLTQSKSVHSFAADSEELKQKWLKVILLAVTGETPGGPNEHPATLDDHPEPKKKSEC
- binding: binds
